The values are deposited in ChEMBL (CHEMBL3988442, “University of Dundee, Small-Polar-MMV Screening Library” (2021)).

Amino acid sequences for entries named in this document (tags omitted). Residues count along the entry.
UniProt P9WNZ1, whole entry: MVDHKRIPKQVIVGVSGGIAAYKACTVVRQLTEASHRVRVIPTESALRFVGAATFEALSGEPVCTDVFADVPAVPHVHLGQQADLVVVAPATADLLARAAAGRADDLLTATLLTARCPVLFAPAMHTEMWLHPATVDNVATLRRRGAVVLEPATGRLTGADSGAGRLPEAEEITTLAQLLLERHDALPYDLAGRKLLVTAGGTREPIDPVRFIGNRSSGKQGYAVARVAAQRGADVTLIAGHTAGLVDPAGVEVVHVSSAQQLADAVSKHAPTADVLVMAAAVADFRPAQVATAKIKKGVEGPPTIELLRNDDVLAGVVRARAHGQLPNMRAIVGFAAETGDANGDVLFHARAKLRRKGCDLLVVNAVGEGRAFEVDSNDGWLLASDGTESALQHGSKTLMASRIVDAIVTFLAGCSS
UniProt Q8IDJ8, 1-583: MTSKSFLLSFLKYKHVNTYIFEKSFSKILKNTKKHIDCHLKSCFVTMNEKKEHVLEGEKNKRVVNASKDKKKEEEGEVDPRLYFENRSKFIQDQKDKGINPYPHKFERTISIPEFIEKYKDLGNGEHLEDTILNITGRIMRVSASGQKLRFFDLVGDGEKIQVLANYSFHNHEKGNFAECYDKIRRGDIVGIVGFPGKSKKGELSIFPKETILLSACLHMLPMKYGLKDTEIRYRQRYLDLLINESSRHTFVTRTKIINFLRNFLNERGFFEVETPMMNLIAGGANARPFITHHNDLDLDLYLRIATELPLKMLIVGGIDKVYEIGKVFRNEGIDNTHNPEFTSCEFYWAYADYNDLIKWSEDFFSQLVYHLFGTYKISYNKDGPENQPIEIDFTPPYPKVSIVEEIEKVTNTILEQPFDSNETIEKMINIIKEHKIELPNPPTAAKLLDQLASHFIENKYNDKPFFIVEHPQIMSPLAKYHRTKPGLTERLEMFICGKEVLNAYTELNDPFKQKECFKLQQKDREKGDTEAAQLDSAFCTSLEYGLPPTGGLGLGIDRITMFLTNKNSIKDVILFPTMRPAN
UniProt P9WFT3, whole entry: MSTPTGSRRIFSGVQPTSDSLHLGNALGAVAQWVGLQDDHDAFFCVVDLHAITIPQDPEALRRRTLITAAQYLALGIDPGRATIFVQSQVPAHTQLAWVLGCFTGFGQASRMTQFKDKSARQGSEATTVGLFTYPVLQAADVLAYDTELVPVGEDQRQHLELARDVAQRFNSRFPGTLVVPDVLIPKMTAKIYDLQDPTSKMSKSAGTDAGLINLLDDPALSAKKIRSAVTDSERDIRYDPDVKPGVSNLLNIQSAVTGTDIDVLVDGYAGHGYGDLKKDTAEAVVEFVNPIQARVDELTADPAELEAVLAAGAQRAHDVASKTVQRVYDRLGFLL
UniProt I6X8D2, whole entry: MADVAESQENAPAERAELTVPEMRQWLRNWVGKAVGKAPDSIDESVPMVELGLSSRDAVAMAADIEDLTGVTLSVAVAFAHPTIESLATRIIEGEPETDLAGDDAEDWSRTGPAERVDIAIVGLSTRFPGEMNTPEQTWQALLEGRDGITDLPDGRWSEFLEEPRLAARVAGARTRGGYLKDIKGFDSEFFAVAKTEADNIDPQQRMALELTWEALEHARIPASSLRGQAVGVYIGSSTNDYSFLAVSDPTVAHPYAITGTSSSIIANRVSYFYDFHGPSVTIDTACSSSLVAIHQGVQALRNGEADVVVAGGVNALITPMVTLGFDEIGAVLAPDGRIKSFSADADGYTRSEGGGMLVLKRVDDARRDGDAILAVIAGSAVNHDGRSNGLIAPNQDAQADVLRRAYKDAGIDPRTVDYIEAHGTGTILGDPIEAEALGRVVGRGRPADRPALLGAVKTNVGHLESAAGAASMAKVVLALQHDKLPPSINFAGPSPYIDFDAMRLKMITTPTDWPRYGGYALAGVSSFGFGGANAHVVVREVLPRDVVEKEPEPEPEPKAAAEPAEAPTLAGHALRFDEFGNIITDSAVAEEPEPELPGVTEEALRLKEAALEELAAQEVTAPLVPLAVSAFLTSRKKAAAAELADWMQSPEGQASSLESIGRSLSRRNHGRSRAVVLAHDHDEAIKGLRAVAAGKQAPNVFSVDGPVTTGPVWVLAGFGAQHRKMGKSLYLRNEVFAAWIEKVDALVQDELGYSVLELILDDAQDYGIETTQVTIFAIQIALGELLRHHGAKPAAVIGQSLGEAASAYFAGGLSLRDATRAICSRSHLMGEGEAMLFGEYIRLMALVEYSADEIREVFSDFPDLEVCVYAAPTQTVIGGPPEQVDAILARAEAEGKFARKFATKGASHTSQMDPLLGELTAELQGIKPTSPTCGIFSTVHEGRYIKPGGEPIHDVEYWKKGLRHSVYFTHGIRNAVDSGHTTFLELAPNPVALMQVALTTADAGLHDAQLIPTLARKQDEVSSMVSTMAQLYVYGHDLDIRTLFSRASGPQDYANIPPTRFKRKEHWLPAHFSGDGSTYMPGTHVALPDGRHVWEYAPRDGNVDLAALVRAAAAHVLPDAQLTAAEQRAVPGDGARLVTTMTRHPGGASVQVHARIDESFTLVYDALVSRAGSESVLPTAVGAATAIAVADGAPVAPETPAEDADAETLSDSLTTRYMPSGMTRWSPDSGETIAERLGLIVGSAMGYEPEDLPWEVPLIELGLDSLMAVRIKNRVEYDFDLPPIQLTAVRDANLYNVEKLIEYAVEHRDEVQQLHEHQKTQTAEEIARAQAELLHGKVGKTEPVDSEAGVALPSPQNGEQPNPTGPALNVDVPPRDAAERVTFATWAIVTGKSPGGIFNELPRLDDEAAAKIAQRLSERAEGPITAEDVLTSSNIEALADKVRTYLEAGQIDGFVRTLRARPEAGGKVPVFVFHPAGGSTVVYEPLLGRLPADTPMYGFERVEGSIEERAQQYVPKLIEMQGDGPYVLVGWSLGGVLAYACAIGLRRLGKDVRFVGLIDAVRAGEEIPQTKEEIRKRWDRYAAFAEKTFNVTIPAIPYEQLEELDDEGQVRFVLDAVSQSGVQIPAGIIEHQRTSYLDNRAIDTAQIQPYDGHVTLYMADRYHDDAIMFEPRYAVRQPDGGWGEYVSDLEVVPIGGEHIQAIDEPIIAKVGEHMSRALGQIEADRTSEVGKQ

CoaBC: 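Coenzyme A biosynthesis protein CoaBC, Mycobacterium tuberculosis (UniProt P9WNZ1). Enzyme assay of CoaBC with a phosphate dye (Biomol Green) read at 650 nm. Tested at 30 µM. Direction is inferred from only a few compounds that gave an IC50; most scored high, so higher reads as stronger inhibition. Most strong results did not repeat in a second test. Size under these conditions: about 67,000 compounds, about 40 of them at 50% or above in at least one test.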
PfKRS1: 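Lysine-tRNA ligase, Plasmodium falciparum 3D7 (UniProt Q8IDJ8). Enzyme assay of the cytosolic lysyl-tRNA synthetase in 384-well plates, read by luminescence. Compounds at 30 µM. Higher reads as stronger inhibition, judged from the few compounds that gave an IC50. Of about 69,000 compounds tested this way, about 49 (0.071%) reached 50% or more in at least one test.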
Toxoplasma: 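Assay of Toxoplasma gondii numbers, read through their beta-galactosidase reporter with a colour substrate. Compounds at 10 µM. The record gives no direction; the compounds picked for IC50 retests had high values, so higher reads as fewer parasites. Size under these conditions: about 67,000 compounds, about 260 of them at 50% or above in at least one test.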
MtTrpRS: 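Enzyme assay of tryptophanyl-tRNA synthetase; the read-out is not stated. Target: Tryptophan-tRNA ligase, Mycobacterium tuberculosis (UniProt P9WFT3). Compounds at 10 µM. Higher most likely means stronger inhibition; the record gives no direction and few retests gave an IC50. Size under these conditions: about 65,000 compounds, about 64 of them at 50% or above in at least one test.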
Pks13 thioesterase: 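Polyketide synthase Pks13, Mycobacterium tuberculosis (UniProt I6X8D2). Enzyme assay of the thioesterase domain of polyketide synthase 13; the read-out is not stated. Compounds at 30 µM. The record gives no direction; the compounds picked for IC50 retests had high values, so higher reads as stronger inhibition. Of about 67,000 compounds tested this way, about 300 (0.46%) reached 50% or more in at least one test.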

The filed quantity is “Percent Effect” (%).
How 0% and 100% were set is not recorded. Most values in the screen are low, and negative values occur.
The compounds are a random part of those screened.
A dash means the value is not listed here; it may have been measured.

Cn1nccc1C1CCN(Cc2ccn(-c3ccccc3)n2)CC1 read CoaBC: 5.238%; PfKRS1: 1.823%; Toxoplasma: -1.748%; MtTrpRS: -1.002%; Pks13 thioesterase: -3.264%. Cc1nc(N(C)C2CCCCC2)ncc1C(C)NC(=O)c1cscn1 (stereo not shown) read CoaBC: -5.607%; PfKRS1: 2.632%; Toxoplasma: 0.251%; MtTrpRS: -7.222%; Pks13 thioesterase: 2.185%. CCc1ccccc1OCC(=O)N1CCOCC1c1ncon1 (stereo not shown) read CoaBC: 3.827%; PfKRS1: -1.45%; Toxoplasma: 7.498%; MtTrpRS: 5.726%; Pks13 thioesterase: -34.26%. With O=C(c1cccnc1)N1C[C@@H](c2ccccc2)[C@@]2(CCNC2=O)C1 the screen gave PfKRS1: 2.805%; MtTrpRS: -0.5394%; Pks13 thioesterase: 5.046%. CN(C)C(=O)C1CN(Cc2ccccn2)CCN(S(C)(=O)=O)C1 (stereo not shown) gave CoaBC: 4.167%; PfKRS1: 1.629%; Toxoplasma: 2.043%; Pks13 thioesterase: 8.269%. Result for CC(C(=O)N1CCn2cncc2C1)N1CCCC1 (stereo not shown) was CoaBC: 7.438%; PfKRS1: 5.111%; Toxoplasma: -2.249%; MtTrpRS: -1.326%; Pks13 thioesterase: -33.69%.

For Cn1cccc1C(=O)N1CCc2onc(Cn3cccn3)c2C1 the result was CoaBC: -2.941%; PfKRS1: 7.569%; Toxoplasma: 4.935%; MtTrpRS: -3.836%; Pks13 thioesterase: 3.24%. For Cc1nc(-c2cc(C(=O)NCC(C)(C)CO)c3ccccn23)cs1 the result was CoaBC: 6.25%; PfKRS1: 0.5455%; Toxoplasma: -15.51%; MtTrpRS: 3.597%; Pks13 thioesterase: 17.91%. For CC(=O)Nc1nc(C(=O)NC(C)c2cccnc2)cs1 (stereo not shown) the result was CoaBC: -3.24%; PfKRS1: 7.474%; Toxoplasma: 4.748%; MtTrpRS: 1.383%; Pks13 thioesterase: -12.65%. O=C(O)C(F)(F)F.[H][C@@]12CN(C(=O)NC(C)C)C[C@]1([H])C(=O)N(Cc1cccc(C)n1)C2 read Toxoplasma: -13.72%. CCC(Nc1ccc(Oc2cccc(C#N)c2)cc1)C(N)=O (stereo not shown) read CoaBC: 11.29%; PfKRS1: 9.293%; Toxoplasma: 9.484%; MtTrpRS: -4.479%; Pks13 thioesterase: -12.4%. CCc1oc(C(=O)N2CC[C@H]3CC[C@@H](C2)N3)cc1CN(CC)CC gave CoaBC: 9.383%; PfKRS1: 1.816%; MtTrpRS: -2.193%; Pks13 thioesterase: -14.53%.

COc1cc(NC2CCN(C3CCS(=O)(=O)CC3)CC2)ncn1 gave CoaBC: 2.405%; PfKRS1: 4.789%; Toxoplasma: -8.637%; MtTrpRS: 1.496%; Pks13 thioesterase: -5.108%. Result for Cc1cc(-c2ccc(=O)n(C3CCN(S(C)(=O)=O)CC3)n2)c(C)o1 was CoaBC: -4.751%; PfKRS1: 1.409%; MtTrpRS: 5.639%; Pks13 thioesterase: -21.75%. N#Cc1ccccc1OCCN1CCC(N2CCNC2=O)CC1 read CoaBC: 10.12%; PfKRS1: 2.89%; Toxoplasma: 7.647%; MtTrpRS: -3.79%; Pks13 thioesterase: -5.683%. With CN(CC(=O)Nc1ccon1)S(=O)(=O)c1cc(Cl)ccc1Cl the screen gave CoaBC: -1.316%; PfKRS1: -4.875%; Toxoplasma: 28.13%; MtTrpRS: -1.22%; Pks13 thioesterase: -7.836%. For CC(C)c1ccc(OCCNC(=O)N2CCS(=O)(=O)CC2)cc1 the result was CoaBC: 1.842%; PfKRS1: -0.8232%; Toxoplasma: -2.426%; MtTrpRS: -6.818%; Pks13 thioesterase: -18.42%. Clc1ccc2cccnc2c1CN1CCCC1Cn1cncn1 (stereo not shown) read CoaBC: 7.083%; PfKRS1: 2.84%; Toxoplasma: 2.585%; MtTrpRS: -3.596%; Pks13 thioesterase: -9.672%.

For c1csc(CCNc2nc(-c3ccncc3)nc3c2CCNCC3)c1 the result was CoaBC: -62.15%; PfKRS1: 7.404%; Toxoplasma: 37.01%; MtTrpRS: -1.954%; Pks13 thioesterase: -30.9%. Result for CCNC(=O)c1ccoc1CN1c2ccccc2CC1C (stereo not shown) was CoaBC: -1.935%; PfKRS1: 1.727%; Toxoplasma: -18.19%; MtTrpRS: 1.727%; Pks13 thioesterase: -9.675%. CCN(CC)C(=O)C1CCCN(c2ncnc3oc(C)nc23)C1 (stereo not shown) gave CoaBC: 6.777%; PfKRS1: 1.556%; Toxoplasma: 24.07%; MtTrpRS: 2.496%; Pks13 thioesterase: -1.319%. With CC(O)c1cn(CC2CCN(C(=O)CN(C)C(C)C)CC2)nn1 (stereo not shown) the screen gave CoaBC: -4.348%; PfKRS1: 0.843%; Toxoplasma: 0.4523%; MtTrpRS: 0.8683%; Pks13 thioesterase: 5.396%. With CNC(=O)CN1CC[C@H]2CN(C(=O)c3ccccc3F)C[C@H]2C1 the screen gave CoaBC: 0.2469%; PfKRS1: 1.227%; MtTrpRS: -6.987%; Pks13 thioesterase: -16.78%. Result for O=C(N1CCC2(CC1)[C@H](O)C[C@@H]2O)C1(c2ccccc2F)CC1 was CoaBC: 0.2165%; PfKRS1: 1.636%; Toxoplasma: 16.03%; MtTrpRS: -5.314%; Pks13 thioesterase: -6.52%.

Once more, the final 2:

structure	CoaBC	PfKRS1	Toxoplasma	MtTrpRS	Pks13 thioesterase
CNC(=O)CN1CC[C@H]2CN(C(=O)c3ccccc3F)C[C@H]2C1	0.2469	1.227	-	-6.987	-16.78
O=C(N1CCC2(CC1)[C@H](O)C[C@@H]2O)C1(c2ccccc2F)CC1	0.2165	1.636	16.03	-5.314	-6.52